Some of these results come from one statement about several compounds together.
Molecular target: T1, recombinant human CB1 receptor (Homo sapiens, UniProt P21554)
T1 construct: expressed in transfected cells
Assay: Cannabinoid Receptor-1 (CB1) Binding Assay ([3H]CP-55940 displacement)
Conditions: read-out: IC50 in the CB1 binding assay
Experimental: Binding affinity determination is based on recombinant human CB1 receptor expressed in Chinese Hamster Ovary (CHO) cells (Felder et al, Mol. Pharmacol. 48: 443-450, 1995). Total assay volume is 250 μl (240 μl CB1 receptor membrane solution plus 5 μl test compound solution plus 5 μl [3H]CP-55940 solution). Final concentration of [3H]CP-55940 is 0.6 nM. Binding buffer contains 50 mM Tris-HCl, pH 7.4, 2.5 mM EDTA, 5 mM MgCl2, 0.5 mg/mL fatty acid free bovine serum albumin and protease inhibitors (Cat#P8340, from Sigma). To initiate the binding reaction, 5 μl of radioligand solution is added, the mixture is incubated with gentle shaking on a shaker for 1.5 h at 30° C. The binding is terminated by using 96-well harvester and filtering through GF/C filter presoaked in 0.05% polyethylenimine. The bound radiolabel is quantitated using scintillation counter. Apparent binding affinities for various compounds are calculated from IC50 values (DeBlasi et al., Trends Pharmacol Sci 10: 227-229, 1989).

By UniProt entry, the sequences of proteins in these tests, tags left out.
UniProt P21554, whole entry: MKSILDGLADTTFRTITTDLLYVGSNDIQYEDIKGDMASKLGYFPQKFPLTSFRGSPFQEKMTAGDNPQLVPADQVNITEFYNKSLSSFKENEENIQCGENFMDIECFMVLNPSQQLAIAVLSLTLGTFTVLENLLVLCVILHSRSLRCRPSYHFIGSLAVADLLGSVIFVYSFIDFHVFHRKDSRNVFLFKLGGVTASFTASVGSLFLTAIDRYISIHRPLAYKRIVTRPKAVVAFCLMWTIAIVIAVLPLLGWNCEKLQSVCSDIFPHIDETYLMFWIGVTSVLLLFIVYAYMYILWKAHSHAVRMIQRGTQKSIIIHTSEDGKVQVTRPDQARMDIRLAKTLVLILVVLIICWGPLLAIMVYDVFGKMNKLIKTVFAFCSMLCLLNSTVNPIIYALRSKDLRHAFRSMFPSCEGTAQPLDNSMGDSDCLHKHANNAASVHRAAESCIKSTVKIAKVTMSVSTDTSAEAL

CC(=O)c1c(C(=O)C(C)(C)C)oc2nc(-c3ccc(-c4c[nH]nc4C)cc3Cl)c(-c3ccc(Cl)cc3)cc12 [Example 40, 1-[3-Acetyl-6-[2-chloro-4-(3-methyl-1H-pyrazol-4-yl)phenyl]-5-(4-chlorophenyl)furo[2,3-b]pyridin-2-yl]-2,2-dimethylpropan-1-one] was tested, and the IC50 was less than 1000 nM.
